Data published in the supplement of paper PMC11438910.
Some of the results follow. The signal is at background level for most entries.

Key:
Experiment in all cases: fluorescence intensity of antibody binding to polysaccharide-coupled beads; higher = stronger binding
[1] = target: pneumococcal polysaccharide Pn11F
[2] = target: pneumococcal polysaccharide Pn12A
[3] = target: pneumococcal polysaccharide Pn12B
[4] = target: pneumococcal polysaccharide Pn12F
[5] = target: pneumococcal polysaccharide Pn13
[6] = target: pneumococcal polysaccharide Pn14
[7] = target: pneumococcal polysaccharide Pn15A
[8] = target: pneumococcal polysaccharide Pn15B
[9] = target: pneumococcal polysaccharide Pn15C
[10] = target: pneumococcal polysaccharide Pn15F
[11] = target: pneumococcal polysaccharide Pn16A
[12] = target: pneumococcal polysaccharide Pn16F
[13] = target: pneumococcal polysaccharide Pn17A
[14] = target: pneumococcal polysaccharide Pn17F
[15] = target: pneumococcal polysaccharide Pn18A
[16] = target: pneumococcal polysaccharide Pn18B
[17] = target: pneumococcal polysaccharide Pn18C
[18] = target: pneumococcal polysaccharide Pn18F
[19] = target: pneumococcal polysaccharide Pn19A
[20] = target: pneumococcal polysaccharide Pn19B
[21] = target: pneumococcal polysaccharide Pn19C
[22] = target: pneumococcal polysaccharide Pn19F
[23] = target: pneumococcal polysaccharide Pn2
[24] = antibody concentration 2.8593 ng/mL
[25] = antibody concentration 15.2894 ng/mL
[26] = antibody concentration 81.7561 ng/mL
[27] = antibody concentration 437.17 ng/mL
[28] = antibody concentration 2337.65 ng/mL
[29] = antibody concentration 12500 ng/mL
[30] = antibody concentration 0.1 ng/mL
[31] = antibody concentration 0.534724 ng/mL

B1: 4-80.3 (protein)
chain 1: QVQLQESGPGLVKPSETLSLTCAVSGGSFSSYWWSWIRQPPGKGLEWIGEINGNSGSTNYNPSLKSRVTISKDASKNQFSLKLSSVTAADTAVYYCARYKNVWGRGVLVTVSS
chain 2: DVVMTQSPLSLPITPGQPASISCRSSQSLVHSNGNTYLSWYQQKPGQPPRRLIYQVSNRDSGVPDRFSGSGAGTDFTLKISRVEAEDVGVYYCGQGTNVPTFGQGTKVEIK
fluorescence intensity [1, 24]: 12 MFI | fluorescence intensity [1, 25]: 13.5 MFI | fluorescence intensity [1, 26]: 15.5 MFI | fluorescence intensity [1, 27]: 13.2 MFI | fluorescence intensity [1, 28]: 19.5 MFI | fluorescence intensity [1, 29]: 38 MFI | fluorescence intensity [2, 30]: 16 MFI | fluorescence intensity [2, 31]: 14.5 MFI | fluorescence intensity [2, 24]: 15.5 MFI | fluorescence intensity [2, 25]: 15.5 MFI | fluorescence intensity [2, 26]: 14.8 MFI | fluorescence intensity [2, 27]: 16 MFI | fluorescence intensity [2, 28]: 26.5 MFI | fluorescence intensity [2, 29]: 76 MFI | fluorescence intensity [3, 30]: 17.8 MFI | fluorescence intensity [3, 31]: 17 MFI | fluorescence intensity [3, 24]: 15 MFI | fluorescence intensity [3, 25]: 16 MFI | fluorescence intensity [3, 26]: 15 MFI | fluorescence intensity [3, 27]: 17.5 MFI | fluorescence intensity [3, 28]: 26 MFI | fluorescence intensity [3, 29]: 77.5 MFI | fluorescence intensity [4, 30]: 18.5 MFI | fluorescence intensity [4, 31]: 18.2 MFI | fluorescence intensity [4, 24]: 19 MFI | fluorescence intensity [4, 25]: 19.2 MFI | fluorescence intensity [4, 26]: 19.5 MFI | fluorescence intensity [4, 27]: 23 MFI | fluorescence intensity [4, 28]: 51.5 MFI | fluorescence intensity [4, 29]: 224 MFI | fluorescence intensity [5, 30]: 20 MFI | fluorescence intensity [5, 31]: 20 MFI | fluorescence intensity [5, 24]: 18 MFI | fluorescence intensity [5, 25]: 19 MFI | fluorescence intensity [5, 26]: 18.8 MFI | fluorescence intensity [5, 27]: 19.5 MFI | fluorescence intensity [5, 28]: 29.5 MFI | fluorescence intensity [5, 29]: 90.5 MFI | fluorescence intensity [6, 30]: 14 MFI | fluorescence intensity [6, 31]: 17 MFI | fluorescence intensity [6, 24]: 15.2 MFI | fluorescence intensity [6, 25]: 15.5 MFI | fluorescence intensity [6, 26]: 16.5 MFI | fluorescence intensity [6, 27]: 28.2 MFI | fluorescence intensity [6, 28]: 124 MFI | fluorescence intensity [6, 29]: 844 MFI | fluorescence intensity [7, 30]: 13.2 MFI | fluorescence intensity [7, 31]: 11.5 MFI | fluorescence intensity [7, 24]: 12.5 MFI | fluorescence intensity [7, 25]: 12.5 MFI | fluorescence intensity [7, 26]: 13.5 MFI | fluorescence intensity [7, 27]: 15 MFI | fluorescence intensity [7, 28]: 15.8 MFI | fluorescence intensity [7, 29]: 24.5 MFI | fluorescence intensity [8, 30]: 18.5 MFI | fluorescence intensity [8, 31]: 19.5 MFI | fluorescence intensity [8, 24]: 19 MFI | fluorescence intensity [8, 25]: 19.5 MFI | fluorescence intensity [8, 26]: 20.2 MFI | fluorescence intensity [8, 27]: 25.8 MFI | fluorescence intensity [8, 28]: 31.5 MFI | fluorescence intensity [8, 29]: 68 MFI | fluorescence intensity [9, 30]: 17.5 MFI | fluorescence intensity [9, 31]: 16.5 MFI | fluorescence intensity [9, 24]: 17 MFI | fluorescence intensity [9, 25]: 15 MFI | fluorescence intensity [9, 26]: 16.5 MFI | fluorescence intensity [9, 27]: 19.5 MFI | fluorescence intensity [9, 28]: 20.5 MFI | fluorescence intensity [9, 29]: 34 MFI | fluorescence intensity [10, 30]: 17 MFI | fluorescence intensity [10, 31]: 17.8 MFI | fluorescence intensity [10, 24]: 17 MFI | fluorescence intensity [10, 25]: 17 MFI | fluorescence intensity [10, 26]: 18 MFI | fluorescence intensity [10, 27]: 18.5 MFI | fluorescence intensity [10, 28]: 25.5 MFI | fluorescence intensity [10, 29]: 46.5 MFI | fluorescence intensity [11, 30]: 13.5 MFI | fluorescence intensity [11, 31]: 15.5 MFI | fluorescence intensity [11, 24]: 14.5 MFI | fluorescence intensity [11, 25]: 16.8 MFI | fluorescence intensity [11, 26]: 11 MFI | fluorescence intensity [11, 27]: 14.5 MFI | fluorescence intensity [11, 28]: 22 MFI | fluorescence intensity [11, 29]: 52.5 MFI | fluorescence intensity [12, 30]: 24.8 MFI | fluorescence intensity [12, 31]: 25.5 MFI | fluorescence intensity [12, 24]: 21.8 MFI | fluorescence intensity [12, 25]: 24.2 MFI | fluorescence intensity [12, 26]: 26.8 MFI | fluorescence intensity [12, 27]: 30.2 MFI | fluorescence intensity [12, 28]: 36.5 MFI | fluorescence intensity [12, 29]: 71.5 MFI | fluorescence intensity [13, 30]: 21 MFI | fluorescence intensity [13, 31]: 20.5 MFI | fluorescence intensity [13, 24]: 20 MFI | fluorescence intensity [13, 25]: 19.5 MFI | fluorescence intensity [13, 26]: 21.5 MFI | fluorescence intensity [13, 27]: 22.2 MFI | fluorescence intensity [13, 28]: 24.5 MFI | fluorescence intensity [13, 29]: 36 MFI | fluorescence intensity [14, 30]: 24.8 MFI | fluorescence intensity [14, 31]: 26 MFI | fluorescence intensity [14, 24]: 26.5 MFI | fluorescence intensity [14, 25]: 25.5 MFI | fluorescence intensity [14, 26]: 26.5 MFI | fluorescence intensity [14, 27]: 29.5 MFI | fluorescence intensity [14, 28]: 31.5 MFI | fluorescence intensity [14, 29]: 39.5 MFI | fluorescence intensity [15, 30]: 25 MFI | fluorescence intensity [15, 31]: 23.5 MFI | fluorescence intensity [15, 24]: 25 MFI | fluorescence intensity [15, 25]: 23.5 MFI | fluorescence intensity [15, 26]: 24.5 MFI | fluorescence intensity [15, 27]: 25 MFI | fluorescence intensity [15, 28]: 29 MFI | fluorescence intensity [15, 29]: 49.5 MFI | fluorescence intensity [16, 30]: 32 MFI | fluorescence intensity [16, 31]: 30 MFI | fluorescence intensity [16, 24]: 30.5 MFI | fluorescence intensity [16, 25]: 32.5 MFI | fluorescence intensity [16, 26]: 31 MFI | fluorescence intensity [16, 27]: 36 MFI | fluorescence intensity [16, 28]: 45.5 MFI | fluorescence intensity [16, 29]: 90.8 MFI | fluorescence intensity [17, 30]: 19.5 MFI | fluorescence intensity [17, 31]: 19 MFI | fluorescence intensity [17, 24]: 18 MFI | fluorescence intensity [17, 25]: 20 MFI | fluorescence intensity [17, 26]: 20.8 MFI | fluorescence intensity [17, 27]: 24.5 MFI | fluorescence intensity [17, 28]: 36.8 MFI | fluorescence intensity [17, 29]: 83.5 MFI | fluorescence intensity [18, 30]: 22.5 MFI | fluorescence intensity [18, 31]: 23.5 MFI | fluorescence intensity [18, 24]: 23 MFI | fluorescence intensity [18, 25]: 24.5 MFI | fluorescence intensity [18, 26]: 26 MFI | fluorescence intensity [18, 27]: 30 MFI | fluorescence intensity [18, 28]: 43 MFI | fluorescence intensity [18, 29]: 94.8 MFI | fluorescence intensity [19, 30]: 17.5 MFI | fluorescence intensity [19, 31]: 19 MFI | fluorescence intensity [19, 24]: 20 MFI | fluorescence intensity [19, 25]: 17.8 MFI | fluorescence intensity [19, 26]: 19.2 MFI | fluorescence intensity [19, 27]: 23 MFI | fluorescence intensity [19, 28]: 30.8 MFI | fluorescence intensity [19, 29]: 81.5 MFI | fluorescence intensity [20, 30]: 30.8 MFI | fluorescence intensity [20, 31]: 29.5 MFI | fluorescence intensity [20, 24]: 30 MFI | fluorescence intensity [20, 25]: 28.8 MFI | fluorescence intensity [20, 26]: 29.8 MFI | fluorescence intensity [20, 27]: 31.5 MFI | fluorescence intensity [20, 28]: 111 MFI | fluorescence intensity [20, 29]: 801 MFI | fluorescence intensity [21, 30]: 28.2 MFI | fluorescence intensity [21, 31]: 23.8 MFI | fluorescence intensity [21, 24]: 24.5 MFI | fluorescence intensity [21, 25]: 26 MFI | fluorescence intensity [21, 26]: 25 MFI | fluorescence intensity [21, 27]: 32.5 MFI | fluorescence intensity [21, 28]: 78.5 MFI | fluorescence intensity [21, 29]: 503 MFI | fluorescence intensity [22, 30]: 24.5 MFI | fluorescence intensity [22, 31]: 26 MFI | fluorescence intensity [22, 24]: 25.5 MFI | fluorescence intensity [22, 25]: 29.5 MFI | fluorescence intensity [22, 26]: 27 MFI | fluorescence intensity [22, 27]: 32.8 MFI | fluorescence intensity [22, 28]: 47.5 MFI | fluorescence intensity [22, 29]: 128 MFI | fluorescence intensity [23, 30]: 20 MFI | fluorescence intensity [23, 31]: 20 MFI | fluorescence intensity [23, 24]: 20.8 MFI | fluorescence intensity [23, 25]: 19.5 MFI | fluorescence intensity [23, 26]: 22.5 MFI | fluorescence intensity [23, 27]: 22.5 MFI
